# Test results as given in PubChem BioAssay AID1487 (National Center for Advancing Translational Sciences (NCATS), 2009).
# The other results are listed elsewhere or left out. Shown are side measurements of this screen, not its main read-out; they come without a call. Most of these compounds were active or inconclusive in the main read-out, so they are no random draw. Words in brackets tell the shape of the fitted curve; partial curves, single points and poor fits give uncertain potencies.
# Assay: qHTS Assay for Modulators of Lamin A Splicing
# Conditions: HeLa LMNA splicing GFP/RFP minigene ratio, 48 h
# Summary of the method: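 Read-out is the ratio of GFP to DsRed2 object intensity, acquired by 488 nm laser-scanning cytometry on HeLa lamin A-EGFP minigene reporter cells. Compound incubation 48 hrs at 37 °C in Opti-MEM with 2% FBS; DMSO 0.5% final.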
# [1] = measured here: GFP splicing reporter channel
# [2] = measured here: RFP viability control channel
Compound,AC50 [1],AC50 [2]
Cc1nc(C)c(-c2ccc(SCC(=O)Nc3ccc(Cl)c(Cl)c3)nn2)s1,"35.5 µM [falling, partial curve, poor fit]","35.5 µM [falling, partial curve, poor fit]"
CC(=O)Oc1ccccc1N(C(C)=O)S(=O)(=O)c1cccc([N+](=O)[O-])c1,"6.31 µM [falling, single point]",–
CCCCCCCC(=O)NC(Nc1ccccc1OC)C(Cl)(Cl)Cl (stereo unspecified),"31.6 µM [rising, single point]",–
COc1cccc(CNC(=O)C2CCN(C(=O)N3CCOc4ccc(Cl)cc43)CC2)c1OC,"10 µM [falling, partial curve, poor fit]",–
CCC12CN3CC(CC)(CN(C1)C31C(=O)N(C)c3ccc(C)cc31)C2=O (stereo unspecified),"3.98 µM [falling, partial curve, poor fit]","0.02 µM [falling, full curve, poor fit]"
Cc1cc(OCCCn2ccnc2)ccc1C(C)C,"20 µM [rising, partial curve, poor fit]","15.8 µM [rising, partial curve]"
CCS(=O)(=O)Nc1ccc(C(=O)c2ccccc2)cc1,–,"0.0447 µM [rising, full curve, poor fit]"
CSc1oc(-c2ccccc2)nc1S(=O)(=O)c1ccc(F)cc1,–,"11.2 µM [rising, partial curve, poor fit]"
Cc1cc(C)c2nc(-c3ccccn3)cc(C(=O)Nc3ccc(S(=O)(=O)Nc4onc(C)c4C)cc3)c2c1,"35.5 µM [falling, single point]","12.6 µM [falling, partial curve, poor fit]"
Cc1nc2c(C(=O)NCc3ccccc3)cnn2c(C)c1Cc1ccc(F)cc1,"11.2 µM [falling, partial curve]","11.2 µM [falling, partial curve]"
CCOC(=O)n1c(=O)[nH]c2ccc(Br)cc21,"0.631 µM [rising, single point]",–
COc1ccccc1N(Cc1cc2cccc(C)c2[nH]c1=O)C(=O)C(C)C,–,"35.5 µM [rising, single point]"
CCC(C)n1cnc2c(c1=O)c1nc3ccccc3nc1n2Cc1ccc(OC)cc1 (stereo unspecified),"35.5 µM [falling, single point]","35.5 µM [falling, single point]"
Cc1ccc(O)c(N=NC2=C(O)CC(C)(C)CC2=O)c1,"0.0158 µM [rising, full curve, poor fit]","17.8 µM [rising, partial curve]"

# Whole records as entered above. Values in the order: AC50 [1] | AC50 [2]
# `Cc1nc2c(C(=O)NCc3ccccc3)cnn2c(C)c1Cc1ccc(F)cc1` in the list: 11.2 µM [falling, partial curve] | 11.2 µM [falling, partial curve]
# `CCCCCCCC(=O)NC(Nc1ccccc1OC)C(Cl)(Cl)Cl` (stereo unspecified) in the list: 31.6 µM [rising, single point] | –
